From the supplement of paper PMC10849652 come the findings set out here.

Chains of the proteins cited; added tags and fusions are not shown. Lines headed by an entry give the natural chain unless they say otherwise; changes in a name come on top.
UniProt Q9HD34: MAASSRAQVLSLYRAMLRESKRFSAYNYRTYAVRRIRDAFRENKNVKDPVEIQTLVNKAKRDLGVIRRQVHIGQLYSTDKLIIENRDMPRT
UniProt Q8IWT6: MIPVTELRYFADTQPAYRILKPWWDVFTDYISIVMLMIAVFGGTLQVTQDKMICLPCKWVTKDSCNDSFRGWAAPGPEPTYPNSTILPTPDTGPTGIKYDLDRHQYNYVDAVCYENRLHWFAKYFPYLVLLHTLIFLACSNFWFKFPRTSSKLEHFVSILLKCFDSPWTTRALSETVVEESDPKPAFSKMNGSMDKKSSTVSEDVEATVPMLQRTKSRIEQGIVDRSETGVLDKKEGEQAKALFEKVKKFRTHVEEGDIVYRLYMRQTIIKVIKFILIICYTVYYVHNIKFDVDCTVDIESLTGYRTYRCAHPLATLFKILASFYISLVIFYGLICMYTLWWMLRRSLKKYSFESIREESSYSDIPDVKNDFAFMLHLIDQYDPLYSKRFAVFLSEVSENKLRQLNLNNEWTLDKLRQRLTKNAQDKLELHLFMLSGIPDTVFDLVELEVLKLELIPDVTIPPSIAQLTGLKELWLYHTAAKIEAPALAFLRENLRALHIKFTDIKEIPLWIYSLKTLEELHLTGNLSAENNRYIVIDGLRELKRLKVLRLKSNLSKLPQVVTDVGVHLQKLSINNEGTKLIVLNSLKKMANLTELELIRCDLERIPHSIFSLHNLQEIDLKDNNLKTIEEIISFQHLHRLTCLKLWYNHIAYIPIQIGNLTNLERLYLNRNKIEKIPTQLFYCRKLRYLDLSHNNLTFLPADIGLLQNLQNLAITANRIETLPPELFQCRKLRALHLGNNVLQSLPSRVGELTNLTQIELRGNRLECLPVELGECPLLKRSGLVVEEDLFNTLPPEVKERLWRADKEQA
UniProt P20645: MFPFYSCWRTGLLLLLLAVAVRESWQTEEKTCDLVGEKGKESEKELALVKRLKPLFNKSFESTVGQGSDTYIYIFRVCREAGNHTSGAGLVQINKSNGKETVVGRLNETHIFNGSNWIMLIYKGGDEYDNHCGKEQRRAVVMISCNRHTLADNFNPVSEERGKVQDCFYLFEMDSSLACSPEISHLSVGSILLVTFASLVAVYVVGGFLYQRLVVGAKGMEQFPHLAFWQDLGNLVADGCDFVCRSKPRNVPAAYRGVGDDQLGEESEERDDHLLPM
UniProt P62312: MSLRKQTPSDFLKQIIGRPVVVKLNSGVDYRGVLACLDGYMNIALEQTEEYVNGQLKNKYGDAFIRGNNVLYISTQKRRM
UniProt Q9NTJ4: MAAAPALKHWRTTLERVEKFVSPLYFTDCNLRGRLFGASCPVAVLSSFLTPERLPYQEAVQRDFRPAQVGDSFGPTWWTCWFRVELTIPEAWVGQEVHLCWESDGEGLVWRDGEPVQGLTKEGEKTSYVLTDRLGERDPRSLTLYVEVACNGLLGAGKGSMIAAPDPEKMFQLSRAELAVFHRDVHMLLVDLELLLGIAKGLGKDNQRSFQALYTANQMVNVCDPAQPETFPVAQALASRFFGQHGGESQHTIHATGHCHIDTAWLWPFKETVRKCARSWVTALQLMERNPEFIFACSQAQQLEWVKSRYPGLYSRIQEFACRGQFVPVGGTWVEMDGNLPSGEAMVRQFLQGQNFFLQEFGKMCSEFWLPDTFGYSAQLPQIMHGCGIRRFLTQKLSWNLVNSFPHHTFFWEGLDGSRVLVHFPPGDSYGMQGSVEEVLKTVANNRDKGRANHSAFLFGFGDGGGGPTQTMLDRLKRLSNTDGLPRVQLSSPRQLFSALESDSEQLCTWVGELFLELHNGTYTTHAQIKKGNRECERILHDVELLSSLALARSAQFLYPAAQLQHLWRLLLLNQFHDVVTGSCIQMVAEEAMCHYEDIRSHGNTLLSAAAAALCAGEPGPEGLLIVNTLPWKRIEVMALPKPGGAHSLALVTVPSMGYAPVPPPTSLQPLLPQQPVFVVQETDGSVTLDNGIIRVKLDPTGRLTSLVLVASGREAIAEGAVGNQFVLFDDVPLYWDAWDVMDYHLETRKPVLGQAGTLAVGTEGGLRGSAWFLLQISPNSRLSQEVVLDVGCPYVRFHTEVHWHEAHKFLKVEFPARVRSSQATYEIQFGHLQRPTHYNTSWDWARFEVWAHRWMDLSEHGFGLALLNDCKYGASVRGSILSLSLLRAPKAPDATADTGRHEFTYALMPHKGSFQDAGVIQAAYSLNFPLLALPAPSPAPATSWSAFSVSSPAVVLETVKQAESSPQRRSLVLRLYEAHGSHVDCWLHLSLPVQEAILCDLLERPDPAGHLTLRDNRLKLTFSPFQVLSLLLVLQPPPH
UniProt Q6UWE0: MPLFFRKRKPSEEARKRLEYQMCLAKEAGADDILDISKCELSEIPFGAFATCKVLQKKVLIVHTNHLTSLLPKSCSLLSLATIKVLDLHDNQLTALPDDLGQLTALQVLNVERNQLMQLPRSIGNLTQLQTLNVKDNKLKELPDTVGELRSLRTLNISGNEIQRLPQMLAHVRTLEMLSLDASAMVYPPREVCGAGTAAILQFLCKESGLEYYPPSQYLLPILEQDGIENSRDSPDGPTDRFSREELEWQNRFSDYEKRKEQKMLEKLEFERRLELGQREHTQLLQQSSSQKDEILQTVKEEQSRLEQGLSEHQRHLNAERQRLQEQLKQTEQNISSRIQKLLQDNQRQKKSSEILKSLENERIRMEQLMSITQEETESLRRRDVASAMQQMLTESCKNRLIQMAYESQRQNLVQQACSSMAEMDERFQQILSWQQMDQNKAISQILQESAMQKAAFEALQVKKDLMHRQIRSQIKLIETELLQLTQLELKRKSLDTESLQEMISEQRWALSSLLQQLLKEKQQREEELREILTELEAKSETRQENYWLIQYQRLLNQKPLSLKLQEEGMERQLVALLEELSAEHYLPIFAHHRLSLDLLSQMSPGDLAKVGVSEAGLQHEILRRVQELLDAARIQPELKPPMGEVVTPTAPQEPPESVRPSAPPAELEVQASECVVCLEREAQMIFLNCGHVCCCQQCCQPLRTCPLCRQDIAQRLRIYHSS
UniProt Q9Y4Z0: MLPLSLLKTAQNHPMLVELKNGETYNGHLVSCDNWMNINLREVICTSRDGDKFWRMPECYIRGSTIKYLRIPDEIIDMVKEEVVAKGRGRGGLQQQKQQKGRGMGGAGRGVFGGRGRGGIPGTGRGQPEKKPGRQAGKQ
UniProt P28482, whole entry, looked up: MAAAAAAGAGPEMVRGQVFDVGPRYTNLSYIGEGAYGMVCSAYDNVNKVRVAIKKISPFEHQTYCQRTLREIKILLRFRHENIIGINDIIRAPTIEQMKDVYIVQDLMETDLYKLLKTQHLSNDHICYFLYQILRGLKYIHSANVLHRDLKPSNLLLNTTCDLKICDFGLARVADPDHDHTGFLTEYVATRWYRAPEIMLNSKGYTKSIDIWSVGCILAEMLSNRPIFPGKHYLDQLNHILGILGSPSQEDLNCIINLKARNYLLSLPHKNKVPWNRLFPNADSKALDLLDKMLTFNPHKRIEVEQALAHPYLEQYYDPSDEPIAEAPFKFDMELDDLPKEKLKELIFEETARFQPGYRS
UniProt Q8N5G2: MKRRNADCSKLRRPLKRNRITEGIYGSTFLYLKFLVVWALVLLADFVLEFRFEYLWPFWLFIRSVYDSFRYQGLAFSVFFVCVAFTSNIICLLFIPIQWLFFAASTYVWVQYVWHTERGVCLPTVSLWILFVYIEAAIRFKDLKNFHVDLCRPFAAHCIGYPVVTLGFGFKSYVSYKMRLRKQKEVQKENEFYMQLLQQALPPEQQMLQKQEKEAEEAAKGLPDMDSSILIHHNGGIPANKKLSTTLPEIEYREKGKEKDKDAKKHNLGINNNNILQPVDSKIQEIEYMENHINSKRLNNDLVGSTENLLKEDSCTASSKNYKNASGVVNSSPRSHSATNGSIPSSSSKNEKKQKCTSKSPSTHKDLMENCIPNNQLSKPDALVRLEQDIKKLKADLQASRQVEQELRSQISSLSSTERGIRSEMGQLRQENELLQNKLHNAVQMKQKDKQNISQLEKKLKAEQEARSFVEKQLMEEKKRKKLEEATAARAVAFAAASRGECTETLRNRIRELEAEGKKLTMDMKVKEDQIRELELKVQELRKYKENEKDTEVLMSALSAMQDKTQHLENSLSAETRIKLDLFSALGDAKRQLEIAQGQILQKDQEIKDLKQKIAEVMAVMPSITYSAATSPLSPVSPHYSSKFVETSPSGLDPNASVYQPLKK
UniProt P49641: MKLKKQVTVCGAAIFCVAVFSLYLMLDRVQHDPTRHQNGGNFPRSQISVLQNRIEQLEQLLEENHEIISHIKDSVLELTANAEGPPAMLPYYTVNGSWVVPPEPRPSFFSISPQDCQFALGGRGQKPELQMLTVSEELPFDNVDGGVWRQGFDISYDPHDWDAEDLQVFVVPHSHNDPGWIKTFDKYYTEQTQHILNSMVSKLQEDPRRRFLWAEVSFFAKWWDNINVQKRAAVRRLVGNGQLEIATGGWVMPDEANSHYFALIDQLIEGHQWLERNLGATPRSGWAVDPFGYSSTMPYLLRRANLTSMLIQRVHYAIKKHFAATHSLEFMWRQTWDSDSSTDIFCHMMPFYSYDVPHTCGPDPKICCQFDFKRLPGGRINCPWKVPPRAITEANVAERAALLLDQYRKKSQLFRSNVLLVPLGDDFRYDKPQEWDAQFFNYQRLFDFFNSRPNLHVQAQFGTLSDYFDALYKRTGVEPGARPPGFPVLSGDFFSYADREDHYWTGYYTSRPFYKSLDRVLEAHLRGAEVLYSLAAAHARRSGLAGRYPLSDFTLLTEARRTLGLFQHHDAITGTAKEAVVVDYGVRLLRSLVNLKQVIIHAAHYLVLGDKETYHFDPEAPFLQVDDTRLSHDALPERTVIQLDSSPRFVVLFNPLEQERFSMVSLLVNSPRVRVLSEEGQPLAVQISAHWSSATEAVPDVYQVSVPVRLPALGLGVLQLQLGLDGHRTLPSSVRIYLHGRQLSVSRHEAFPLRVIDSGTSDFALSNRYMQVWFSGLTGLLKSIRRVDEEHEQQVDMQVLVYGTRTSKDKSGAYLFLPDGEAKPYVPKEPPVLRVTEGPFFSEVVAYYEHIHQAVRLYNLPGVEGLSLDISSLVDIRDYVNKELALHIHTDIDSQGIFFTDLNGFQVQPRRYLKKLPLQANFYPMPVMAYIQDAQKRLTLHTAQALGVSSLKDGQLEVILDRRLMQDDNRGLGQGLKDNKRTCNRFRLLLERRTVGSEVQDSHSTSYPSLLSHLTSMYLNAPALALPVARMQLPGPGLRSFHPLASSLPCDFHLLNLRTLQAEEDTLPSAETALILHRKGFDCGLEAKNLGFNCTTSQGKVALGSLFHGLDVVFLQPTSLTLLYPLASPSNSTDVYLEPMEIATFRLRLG
UniProt P55145: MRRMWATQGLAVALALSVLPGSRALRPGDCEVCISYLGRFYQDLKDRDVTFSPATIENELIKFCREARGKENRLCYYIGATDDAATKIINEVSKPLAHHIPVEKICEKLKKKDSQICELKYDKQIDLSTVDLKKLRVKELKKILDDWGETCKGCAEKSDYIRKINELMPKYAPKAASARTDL
UniProt Q9UKM7: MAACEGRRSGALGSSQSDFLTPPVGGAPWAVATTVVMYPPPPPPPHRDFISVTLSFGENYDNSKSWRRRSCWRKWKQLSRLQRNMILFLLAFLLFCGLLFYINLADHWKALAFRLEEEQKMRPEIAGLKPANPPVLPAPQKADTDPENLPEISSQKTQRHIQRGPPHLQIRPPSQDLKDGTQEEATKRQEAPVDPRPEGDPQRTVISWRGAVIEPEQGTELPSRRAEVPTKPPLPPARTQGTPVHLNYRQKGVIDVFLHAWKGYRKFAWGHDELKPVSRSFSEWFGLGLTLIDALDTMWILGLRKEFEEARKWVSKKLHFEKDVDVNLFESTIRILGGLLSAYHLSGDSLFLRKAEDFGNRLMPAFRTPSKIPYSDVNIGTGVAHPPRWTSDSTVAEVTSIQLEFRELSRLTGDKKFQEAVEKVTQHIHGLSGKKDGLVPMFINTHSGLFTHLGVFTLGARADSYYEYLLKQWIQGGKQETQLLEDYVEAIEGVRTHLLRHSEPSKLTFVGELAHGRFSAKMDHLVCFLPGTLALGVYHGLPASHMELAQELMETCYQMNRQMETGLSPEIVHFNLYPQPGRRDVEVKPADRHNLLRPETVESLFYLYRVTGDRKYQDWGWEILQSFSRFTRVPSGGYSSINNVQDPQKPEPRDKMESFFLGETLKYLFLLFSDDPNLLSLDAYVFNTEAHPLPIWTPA
UniProt Q15013: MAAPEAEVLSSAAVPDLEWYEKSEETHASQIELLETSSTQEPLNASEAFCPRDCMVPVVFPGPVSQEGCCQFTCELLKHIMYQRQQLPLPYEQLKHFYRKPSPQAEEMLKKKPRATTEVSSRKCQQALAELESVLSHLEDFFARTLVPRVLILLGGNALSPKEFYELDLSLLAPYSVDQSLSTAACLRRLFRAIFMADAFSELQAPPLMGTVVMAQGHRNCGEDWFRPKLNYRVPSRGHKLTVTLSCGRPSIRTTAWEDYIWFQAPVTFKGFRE
UniProt Q9UK45: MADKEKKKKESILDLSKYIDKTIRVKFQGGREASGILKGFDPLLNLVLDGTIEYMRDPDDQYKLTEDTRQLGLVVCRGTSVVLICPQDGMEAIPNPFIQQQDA

The other results are listed elsewhere or left out.

Compound in the first assay: C1COCCN1CCN2C3=CC=CC=C3N=C2NC(=O)C4=CC(=CC=C4)[N+](=O)[O-] [IRAK-1-4 Inhibitor I]
Put plainly: log2 fold change, soluble protein after heating vs DMSO (PISA); higher = thermal stabilisation; K562 cells, 10 uM, 30 min; active = over 0.2 and 3.5 SD of the protein, either way, in both replicates (recomputed). The method, boiled down: (§1)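 Soluble protein was defined as the supernatant after 21,000xg for 90 min. It came from K562 cells at 2×10^6 cells/mL given 10 μM compound for 30 min, heated in aliquots for 3 min across 48°C-58°C, pooled, and extracted in PBS with 0.5% NP-40 at 4°C, and was quantified by TMTpro 16plex LC-MS/MS with equalised channel sums. Thermal stability against control samples, from duplicates, is reported as log2 fold change.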
With LYRM4 (UniProt Q9HD34), the log2 fold change is inactive: 0.031.

Regarding MAGEB2 (UniProt O15479), the log2 fold change is inactive: -0.065.

On to MAP1A isoform 2 (UniProt P78559), for which the log2 fold change was inactive: -0.066.

Regarding MANBA (UniProt O00462), the log2 fold change is inactive: 0.031.

With MAP7D1 (UniProt Q3KQU3), the log2 fold change was inactive: -0.099.

As to MAEA (UniProt Q7L5Y9), the log2 fold change is inactive: -0.065.

MARCHF6 (UniProt O60337): the log2 fold change was inactive: 0.043.

For LRRC8A (UniProt Q8IWT6), the log2 fold change was inactive: -0.026.

Turning to MAGT1 (UniProt Q9H0U3), the log2 fold change was inactive: -0.031.

Turning to M6PR (UniProt P20645), the log2 fold change is inactive: 0.027.

On to LSM6 (UniProt P62312), for which the log2 fold change was inactive: 0.049.

Regarding LSM2 (UniProt Q9Y333), the log2 fold change is inactive: 0.017.

Turning to MACF1 (UniProt H3BQK9), the log2 fold change was inactive: -0.182.

Turning to LYZ (UniProt P61626), the log2 fold change is inactive: -0.035.

For MAP2K4 isoform 2 (UniProt P45985), the log2 fold change is inactive: 0.032.

For LRRFIP2 (UniProt Q9Y608), the log2 fold change is inactive: 0.008.

Take MAN2C1 isoform 4 (UniProt Q9NTJ4): the log2 fold change is inactive: -0.004.

Regarding LRSAM1 (UniProt Q6UWE0), the log2 fold change is inactive: 0.023.

As for MAN2A1 (UniProt Q16706), the log2 fold change is inactive: 0.018.

Turning to LSM4 (UniProt Q9Y4Z0), the log2 fold change is inactive: 0.

As to MAPK1 (UniProt P28482), the log2 fold change is inactive: 0.029.

Turning to MACO1 (UniProt Q8N5G2), the log2 fold change was inactive: -0.025.

In the case of MAN2A2 (UniProt P49641), the log2 fold change was inactive: -0.027.

With MALSU1 (UniProt Q96EH3), the log2 fold change is inactive: 0.005.

For MANF (UniProt P55145), the log2 fold change is inactive: 0.023.

With MARCHF5 (UniProt Q9NX47), the log2 fold change was inactive: 0.073.

As for MAP7 isoform 7 (UniProt Q14244), the log2 fold change was inactive: -0.135.

Regarding MAN1B1 (UniProt Q9UKM7), the log2 fold change is inactive: 0.019.

On to MAD2L1BP isoform 3 (UniProt Q15013), for which the log2 fold change was inactive: 0.02.

Turning to MAPRE1 (UniProt Q15691), the log2 fold change is inactive: 0.034.

Regarding LSM3 (UniProt P62310), the log2 fold change is inactive: 0.09.

As for LYAR (UniProt Q9NX58), the log2 fold change is inactive: -0.151.

With LSM7 (UniProt Q9UK45), the log2 fold change was inactive: 0.068.

Compound in another assay: C=CC(=O)N1CCC[C@@H](n2nc(-c3ccc(Oc4ccccc4)cc3)c3c(N)ncnc32)C1 [ibrutinib]
The assay is described as above. Put shortly: as §1
LYRM4 (UniProt Q9HD34): the log2 fold change was inactive: 0.007.

On to MAGEB2 (UniProt O15479), for which the log2 fold change is inactive: 0.219.

As to MAP1A isoform 2 (UniProt P78559), the log2 fold change was inactive: -0.038.

For the target MANBA (UniProt O00462), the log2 fold change is inactive: 0.019.

Turning to MAP7D1 (UniProt Q3KQU3), the log2 fold change was inactive: 0.026.

Take MAEA (UniProt Q7L5Y9): the log2 fold change is inactive: -0.037.

MARCHF6 (UniProt O60337): the log2 fold change was inactive: 0.054.

LRRC8A (UniProt Q8IWT6): the log2 fold change is inactive: 0.025.

Consider MAGT1 (UniProt Q9H0U3), for which the log2 fold change was inactive: -0.014.

M6PR (UniProt P20645): the log2 fold change was inactive: 0.052.

As to LSM6 (UniProt P62312), the log2 fold change is inactive: 0.037.

For LSM2 (UniProt Q9Y333), the log2 fold change is inactive: 0.01.

For the target MACF1 (UniProt H3BQK9), the log2 fold change was inactive: -0.029.

On to LYZ (UniProt P61626), for which the log2 fold change is inactive: 0.178.

For the target MAP2K4 isoform 2 (UniProt P45985), the log2 fold change was inactive: 0.014.

On to LRRFIP2 (UniProt Q9Y608), for which the log2 fold change is inactive: 0.005.

With MAN2C1 isoform 4 (UniProt Q9NTJ4), the log2 fold change is inactive: -0.043.

LRSAM1 (UniProt Q6UWE0): the log2 fold change was inactive: -0.032.

For the target MAN2A1 (UniProt Q16706), the log2 fold change is inactive: 0.012.

For LSM4 (UniProt Q9Y4Z0), the log2 fold change is inactive: 0.029.

MAPK1 (UniProt P28482): the log2 fold change was inactive: -0.022.

As to MACO1 (UniProt Q8N5G2), the log2 fold change was inactive: 0.023.

In the case of MAN2A2 (UniProt P49641), the log2 fold change was inactive: -0.017.

For MALSU1 (UniProt Q96EH3), the log2 fold change was inactive: -0.006.

Turning to MANF (UniProt P55145), the log2 fold change was inactive: 0.007.

Take MARCHF5 (UniProt Q9NX47): the log2 fold change was inactive: -0.015.

For MAP7 isoform 7 (UniProt Q14244), the log2 fold change is inactive: 0.119.

Consider MAN1B1 (UniProt Q9UKM7), for which the log2 fold change is inactive: -0.016.

For the target MAD2L1BP isoform 3 (UniProt Q15013), the log2 fold change was inactive: -0.013.

Turning to MAPRE1 (UniProt Q15691), the log2 fold change is inactive: -0.037.

As to LSM3 (UniProt P62310), the log2 fold change was inactive: -0.002.

Regarding LYAR (UniProt Q9NX58), the log2 fold change is inactive: 0.023.

In the case of LSM7 (UniProt Q9UK45), the log2 fold change is inactive: -0.118.

Compound in a further assay: CC(=O)c1cnc2ccc(-c3cc(Cl)c(O)c(Cl)c3)nc2c1N[C@H]1CC[C@H](CN(C)C)CC1
The assay is described as above. Put shortly:
as §1
Consider LYRM4 (UniProt Q9HD34), for which the log2 fold change was inactive: -0.022.

Turning to MAGEB2 (UniProt O15479), the log2 fold change is inactive: 0.127.

For the target MAP1A isoform 2 (UniProt P78559), the log2 fold change was inactive: 0.075.

Consider MANBA (UniProt O00462), for which the log2 fold change was inactive: -0.055.

With MAP7D1 (UniProt Q3KQU3), the log2 fold change was inactive: 0.068.

MAEA (UniProt Q7L5Y9): the log2 fold change was inactive: 0.05.

Consider MARCHF6 (UniProt O60337), for which the log2 fold change is inactive: -0.013.

For LRRC8A (UniProt Q8IWT6), the log2 fold change was inactive: 0.019.

Consider MAGT1 (UniProt Q9H0U3), for which the log2 fold change was inactive: 0.031.

Consider M6PR (UniProt P20645), for which the log2 fold change is inactive: 0.044.

As for LSM6 (UniProt P62312), the log2 fold change is inactive: 0.058.

On to LSM2 (UniProt Q9Y333), for which the log2 fold change was inactive: -0.012.

Consider MACF1 (UniProt H3BQK9), for which the log2 fold change was inactive: -0.115.

Consider LYZ (UniProt P61626), for which the log2 fold change is inactive: 0.208.

Consider MAP2K4 isoform 2 (UniProt P45985), for which the log2 fold change was inactive: -0.244.

For the target LRRFIP2 (UniProt Q9Y608), the log2 fold change was inactive: 0.014.

Consider MAN2C1 isoform 4 (UniProt Q9NTJ4), for which the log2 fold change was inactive: -0.037.

LRSAM1 (UniProt Q6UWE0): the log2 fold change is inactive: 0.036.

Consider MAN2A1 (UniProt Q16706), for which the log2 fold change was inactive: -0.015.

On to LSM4 (UniProt Q9Y4Z0), for which the log2 fold change is inactive: 0.048.

With MAPK1 (UniProt P28482), the log2 fold change was inactive: 0.009.

Take MACO1 (UniProt Q8N5G2): the log2 fold change was inactive: 0.012.

For the target MAN2A2 (UniProt P49641), the log2 fold change was inactive: -0.012.

Turning to MALSU1 (UniProt Q96EH3), the log2 fold change was inactive: -0.038.

In the case of MANF (UniProt P55145), the log2 fold change was inactive: 0.044.

MARCHF5 (UniProt Q9NX47): the log2 fold change was inactive: -0.011.

Take MAP7 isoform 7 (UniProt Q14244): the log2 fold change was inactive: 0.07.

As for MAN1B1 (UniProt Q9UKM7), the log2 fold change is inactive: -0.037.

Regarding MAD2L1BP isoform 3 (UniProt Q15013), the log2 fold change is inactive: -0.026.

Turning to MAPRE1 (UniProt Q15691), the log2 fold change was inactive: -0.011.

For LSM3 (UniProt P62310), the log2 fold change was inactive: -0.039.

For LYAR (UniProt Q9NX58), the log2 fold change is inactive: 0.287.

Take LSM7 (UniProt Q9UK45): the log2 fold change is inactive: 0.008.
